The subject of series [1] is GluA2Qflip AMPA receptor (GluR2Q flip). Put plainly: SELEX. Conditions: protein in cells.
The test system is the same in series [2]. Put plainly: activity in cells. Conditions: protein in cells; for functional effect of the aptamer: monomeric RNA active, hydrogel form inactive.

For some of these results: Construct, isoform or probe ends are uncertain for at least one entry. For some of these results: Results from cells or extracts need not show a direct contact.

In the case of “GGGAGAAUUCAACUGCCAUCUAGGCGGCGCAAAAAACGUAAAAUGGGUCAUGGGAAAGGGCAGGUGAGAGGACUAGUACUACAAGCUUCUGGACUCGGU [CZ]”, in series [1], the selection result was “selected”. For the same sequence, in series [2] (whole-cell recording, -60 mV, 22 C, dose not given here), the “functional effect of the aptamer” value is given as “active”.

On to “GGGAGGCGGAUUCGAGAAUUCAACUGCCAUCUAGGCGGCGCAAAAAACGUAAAAUGGGUCAUGGGAAAGGGCAGGUGAGAGGACUAGUACUACAAGCUUCUGGACUCGGAUCCGUGACCCAAAGGUCAUACUCCCGGAGAAUUCAACUGCCAUCUAGGCGGCGCAAAAAACGUAAAAUGGGUCAUGGGAAAGGGCAGGUGAGAGGACUAGUACUACAAGCUUCUGGACUCCAAUAUU [2CZ]”, for which the “functional effect of the aptamer” value in series [2] (2 uM 2CZ potentiated current response to 0.1 mM glutamate, pH 7.4, -60 mV, variant of CZ) is “active”.

As to “GGGAGAAUUCAACUGCCAUCUAGGCGGCGCAAAAAAAAAAAAAUGGGUCAUGGGAAAGGGCAGGUGAGAGGACUAGUACUACAAGCUUCUGGACUCGGU [D17]”, the functional effect of the aptamer (A'/A potentiation ratio) in series [2] (2 uM D17, 0.1 mM glutamate, average of three cells, potentiation lost, binding not measured, variant of CZ) was 1.03.
